Measured values: PubChem BioAssay AID2685 (National Center for Advancing Translational Sciences (NCATS), 2010)
Hit rate of the full screen: of about 320,000 compounds, about 2,100 (0.66%) were called active. Calls follow the shape of the dose curve; as a rule, active = well fitted inhibition curve with a large enough effect in the signal ratio, with a control signal flat (not every such curve was filed as active); inconclusive = small, poorly fitted or top-dose-only effect, or effect the other way, or a change in a side signal; inactive = flat fitted curve, though single readings scatter; the % refers to the signal ratio. Inconclusive results, whose numbers are uncertain, are shown. Where the call is inconclusive, the potency comes from a doubtful curve fit.

Experiment: qHTS Assay for Lipid Storage Modulators in Drosophila S3 Cells
Details: BODIPY lipid droplet fluorescence, 18-24 h, cells fed with added oleic acid; lipid storage change, negative = inhibition: at 46.1 µM (top of the series) unless noted
Method in brief: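 Drosophila S3 cells loaded with oleic acid (400 uM, as added) and compounds at several concentrations; lipid droplets imaged by 488-nm laser-scanning cytometry, 500–530 nm intensity and object ratio to cell channel. Percent activity normalized to 20 uM Triacsin C.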
% is scaled to controls: 0 for no effect and ±100 for the full control effect; potency is read from the fitted curve at half-maximal effect.

Lipid storage change, negative = inhibition, inconclusive:
Cc1cccc(N2CCN(C(=O)CCS(=O)(=O)c3ccc4c(c3)NC(=O)C(C)S4)CC2)c1C (stereo not drawn) -8.86%, CC(C)C(NS(=O)(=O)c1ccc(Br)s1)C(=O)O (stereo not drawn) -32.9%, COc1ccc(NC(=O)CS(=O)CC(=O)N2CCN(C3CCCC3)CC2)cc1 (stereo not drawn) -19.8%, O=C(COC(=O)CCSc1ccc(Cl)cc1)NCc1ccc(Cl)cc1 -66.9%, CNC(=O)C1CC(=O)N(c2ccc(C)cc2)C1 (stereo not drawn) 4.96%, CC(C)CC(=O)Nc1nnc(SCC(=O)NC2CCCCC2)s1 8.18%, O=C(Nc1nnc(-c2cc(Cl)ccc2Cl)o1)C1=COCCO1 -67.4% [at 0.0737 µM], CCCc1nnc(NC(=O)c2cccnc2)s1 14.9%, COc1cccc(-c2nc(NCc3cccnc3)c3ccccc3n2)c1O -36.5%, Cc1cccc(NC(=S)N(Cc2cccc(Br)c2)CC2CCC(C(=O)O)CC2)c1 (stereo not drawn) 7.64%, O=C(Nc1ccc(N2CCOCC2)cc1)c1ccc(COc2ccccc2)cc1 -4.27%, COC(=O)c1c(NC(=O)c2cccnc2)sc(C)c1C 54.4%, CCOC(=O)C1CCN(C(=O)c2ccc(SC)cc2OC)CC1 57.8%, FC(F)(F)c1nnc(-c2ccccc2)nc1Sc1ccccc1 -80%, Cc1ccc(/C=N/NC(=O)c2csc(C)c2)o1 8.16%, CCCC[C@]12Cc3cc(OC)c(OC)cc3C(O1)C1=C(O2)C(=O)c2ccccc2C1=O -68.4% [at 9.22 µM], CNc1ccc(SC#N)cc1 7.07%, COC(=O)c1cc(Br)c(=O)n(-c2cc(C)on2)c1 -24.7%, COCCN(C(=S)Nc1c(C)cccc1C)C(C)c1cccs1 (stereo not drawn) 8.83%, Cc1ccc(NC(=O)CN2C(=O)N/C(=C\c3cccn3-c3cccc(C(=O)O)c3)C2=O)cc1 -19.5%, CN(CC(=O)NCCCN1CCOCC1)S(=O)(=O)c1cc(Cl)ccc1Cl 97%, O=C(N/N=C/c1ccsc1)c1cc(-c2ccncc2)nc2ccccc12 31.6%, Cc1ccc(-n2c(CSc3nc(C)cc(C)n3)nnc2SCC(=O)NCc2ccco2)cc1 -20.6%, COc1ccc(-c2nc(C#N)c(N3CCCCC3)o2)cc1 17.5%, Cc1ccc(C)c(C(=O)CSc2n[nH]c(-c3ccncc3)n2)c1 -16.3%, CCn1cc([N+](=O)[O-])c(C(=O)Nc2ccc(Br)cn2)n1 11.5%, CCOc1ccc(S(=O)(=O)NC2CCCC2)cc1C 76.7%, CCOC(=O)c1sc(NC(=O)C2CC(=O)N(c3ccc4c(c3)OCCO4)C2)nc1C (stereo not drawn) -60%, O=S(=O)(c1ccc(Br)s1)N1CCNCC1 7.63%, COc1ccccc1OCCCOc1ccc(/C=C2\SC(=O)NC2=O)cc1OC -31.1%, Cc1ccc(CN2C(=O)NC(Cc3c[nH]c4ccccc34)C2=O)cc1 (stereo not drawn) 7.16%, O=C(c1ccco1)N1CCN(C(=S)NC2CC3CCC2C3)CC1 (stereo not drawn) -33.5%, COCCCNC(=S)N/N=C/c1ccc(O)cc1 1.04%, CCOc1ccccc1NC(=O)COC(=O)C1CC1 -18.8%, CN(CC(=O)NCc1ccncc1)S(=O)(=O)c1ccc(Cl)cc1 -10.8%, Cc1ccc(S(=O)(=O)c2cnc(-c3ccccc3)nc2Oc2ccccc2)cc1 -1.89%, Cc1ccc(C(=O)NCC(=O)Nc2ccc3c(c2)CCC3)cc1C 9.72%, CN(NS(=O)(=O)c1ccc(Br)cc1)c1nc(C(F)(F)F)nc2ccccc12 31.3%, O=C(Cc1c[nH]c2ccccc12)N1CCN(S(=O)(=O)c2ccc(Cl)cc2)CC1, CCCCCCSc1nnc(-c2cnn(-c3ccccc3)c2-n2cccc2)n1C 165%, CC1CCc2sc(NC(=S)NC(=O)c3ccccc3)c(C#N)c2C1 (stereo not drawn) 17%, NC(CO)(CO)COCc1ccccc1 11.8%, O=C(c1cnn2c1NC(c1ccc(Br)cc1)CC2C(F)(F)F)N1CCN(C23CC4CC(CC(C4)C2)C3)CC1 (stereo not drawn) -16.1%, CC(c1ccccc1)n1c(S(=O)(=O)O)nc2ccccc21 (stereo not drawn) 8.86%, Cc1cccc(NC2=Nc3ccccc3N3C2=Nc2c(c(C)nn2-c2ccccc2)C3c2ccc(O)c(O)c2)c1 (stereo not drawn) -27.9%, COc1ccc(NC(=S)NC2CCCCC2)c(OC)c1 30.7%, O=C(Nc1ccccc1Cl)NC1(C(=O)N2CCCCC2)CCCCC1 -24.7%, CSc1ccccc1C(=O)Nc1cc([N+](=O)[O-])ccc1C -12.8%, COc1ccc(NC(=S)N2CCC(NC(=O)c3ccc(F)cc3)CC2)cc1 -31%, Clc1ncn(CCOc2ccccc2)c1Cl 5.57%, Cc1c(CNC2CCCC2)c(C(=O)O)c(C)n1Cc1ccccc1 3.37%

Potency, inconclusive:
Cc1ccc(-c2cc(C(=O)N3CCCc4ccccc43)c3ccccc3n2)cc1 9.2 µM [activator, partial curve], CC(Oc1ccc(-c2nccc(-c3ccccn3)n2)cc1)C(=O)NN (stereo not drawn) 6.51 µM [rising, single point], Cc1occc1C(=O)N=Nc1c(O)n(C)c2ccccc12 7.31 µM [activator, partial curve], CC(C(=O)O)N1c2cccc3cccc(c23)S1(=O)=O (stereo not drawn) 16.4 µM [activator, partial curve], COC(=O)c1c(S(N)(=O)=O)c2ccccc2n1C 3.26 µM [falling, partial curve], Cc1cc2ncn(N)c2cc1C 2.06 µM [activator, single point], CCCCOc1ccc(C(=O)NNC(=S)NC(=O)CC)cc1 29.1 µM [falling, single point], CCCc1nc2ccc(NC(=O)c3ccco3)cc2c(=O)n1Cc1ccccc1Cl 29.1 µM [falling, single point], COCCNC(=S)N/N=C(\C)c1cc2ccccc2o1 0.517 µM [activator, full curve], COc1nc(Nc2ccc3c(c2)OCO3)nc(OC)n1 0.103 µM [activator, full curve, poor fit], Cc1ccccc1NC(=O)CSc1nc2ccccc2c(=O)n1CC1CCCO1 (stereo not drawn) 29.1 µM [activator, single point], COc1ccc(-n2c(=O)c3ccccc3n(CC(=O)Nc3cc(C)on3)c2=O)cc1OC 0.291 µM [activator, partial curve], N#Cc1c(-c2cccs2)cc(-c2cccnc2)nc1N 20.6 µM [falling, single point], c1csc(Cc2nn3c(-c4ccncc4)nnc3s2)c1 0.58 µM [activator, full curve], COc1cccc(C(=O)Nc2ccccc2C(=O)NCC2CCCO2)c1 (stereo not drawn) 29.1 µM [falling, single point], COCC(=O)Nc1cc(OC)ccc1OC 2.31 µM [falling, single point], COc1ccc(C)cc1S(=O)(=O)N(C)CC(=O)N1CCCCCC1 9.2 µM [activator, partial curve, poor fit], Nn1c(SCC(=O)NCc2ccccc2)nnc1C1CC1 2.91 µM [activator, partial curve], CC1(C)Cc2c(C#N)c(N)n(-c3ccccc3)c(=O)c2CO1 0.231 µM [activator, full curve, poor fit], COc1ccc(CNC(=O)CCC(=O)Nc2cccnc2)cc1 0.92 µM [falling, full curve, poor fit], COC(=O)c1c(-c2ccc(OC)cc2)oc2ccc(-c3ccc(OC)nc3)cc12 6.51 µM [falling, partial curve, poor fit], Cc1ncc(CO)c2cc(C(=O)Nc3ccccc3Cl)c(=Nc3cccc(C(N)=O)c3)oc12 2.91 µM [falling, full curve], O=[N+]([O-])c1ccc(OCc2nnc(-c3ccccc3)o2)cc1 2.59 µM [activator, single point], CC1CN(S(=O)(=O)c2ccc(CN3C(=O)c4cccnc4C3=O)s2)c2ccccc2O1 (stereo not drawn) 29.1 µM [activator, single point], O=[N+]([O-])c1cccc(/C=C/c2nc(C=Nc3ccc4ccccc4c3)c(O)o2)c1 29.1 µM [falling, single point], O=C(CSc1nc(-c2ccccc2)c(-c2ccccc2)[nH]1)N1CCN(S(=O)(=O)c2ccccc2)CC1 6.51 µM [rising, single point], Oc1ccc(/C=N/Nc2ncc(Cl)cc2Cl)cc1 29.1 µM [activator, single point]
